PubChem BioAssay AID686937 | Drosophila RNAi Screening Center – 2013

Screen: 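Knock-downs that reduce output of a secreted reporter enzyme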 (primary screen)
Cells: Drosophila S2 cells expressing secreted horseradish peroxidase
Reagents: long dsRNA against Drosophila genes
Time to read-out: about 5.5 days (5 days dsRNA, then 12 h reporter induction)
Conditions: reporter expression induced after 5 days of dsRNA, read 12 h later; inducer not stated
Read-out: 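After 5 days of dsRNA and 12 h of reporter induction, medium peroxidase read by chemiluminescence and scored as per-plate z-score; higher values mean more reporter released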
Reading the numbers: z-score: higher = more reporter secreted into medium
The screen tested about 23,000 reagents; shown is an unselected part of those with a known target gene and a result. 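Reduced-secretion tags in replicate 1 do not always agree with the z-scores; no criterion for assigning the tags was given.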 Reagents against one gene are numbered here. A plus sign joins genes that one reagent is predicted to hit. Not all columns of the deposit are shown. Not stated in the record: the amount of reagent.

With Pi4KIIIalpha, what does the deposit list?
z-score, replicate 1: 0.17

For kel, what does the deposit list?
z-score, replicate 1: 0.26

With Hnf4 #1, what does the deposit list?
z-score, replicate 1: 0.69

For Hnf4 #2, what was measured?
z-score, replicate 1: 0.69

With CG12496, what was measured?
z-score, replicate 1: 0.69

For Snmp2 #1, what does the deposit list?
z-score, replicate 1: 0.5

What did the screen give for Snmp2 #2?
z-score, replicate 1: 0.38

For CG13502, how do the results read?
z-score, replicate 1: 0

Which result is listed for Ugt37C2?
z-score, replicate 1: 0.27

What is on record for Arc42 #1?
z-score, replicate 1: 0.46

What did the screen give for Arc42 #2?
z-score, replicate 1: 0.17

For Nepl19, what was measured?
z-score, replicate 1: 0.57

With dec #1, what was measured?
z-score, replicate 1: 0.09

What did the screen give for dec #2?
z-score, replicate 1: -0.09

What is on record for Atf3?
z-score, replicate 1: -0.5

3 entries from above, reformatted:
dec #1
- z-score, replicate 1: 0.09

dec #2
- z-score, replicate 1: -0.09

Atf3
- z-score, replicate 1: -0.5

The listing continues:
What is on record for MRP?
z-score, replicate 1: 0.27

Which result is listed for CG16741?
z-score, replicate 1: 0.48

With CG15599, what does the deposit list?
z-score, replicate 1: 0.04

With CG6933, what does the deposit list?
z-score, replicate 1: 0.07

With CG4860 #1, what does the deposit list?
z-score, replicate 1: 0.23

Which result is listed for CG4860 #2?
z-score, replicate 1: -0.57

What is on record for CG34315 + Orc3?
z-score, replicate 1: 0.27

Which result is listed for SLO2 #1?
z-score, replicate 1: -2.07

What did the screen give for SLO2 #2?
z-score, replicate 1: 0.36

What is on record for SLO2 #3?
z-score, replicate 1: 0.55

For SLO2 #4, what was measured?
z-score, replicate 1: 0.23

What did the screen give for SLO2 #5?
z-score, replicate 1: -1.67

What did the screen give for Nepl8?
z-score, replicate 1: 0.18

What did the screen give for CG43174 (retired record) + CG43173 (retired record)?
z-score, replicate 1: 0.3

What is on record for CG12836?
z-score, replicate 1: 0.49

How did the screen score Dis3l2?
z-score, replicate 1: 0.34

Which result is listed for Psi?
z-score, replicate 1: -0.25

Which result is listed for pod1?
z-score, replicate 1: 0.54

For Gpdh2, how do the results read?
z-score, replicate 1: 0.05

For CG43153, how do the results read?
z-score, replicate 1: 0.54

For CG13376, what does the deposit list?
z-score, replicate 1: 0.42

What is on record for CG31533?
z-score, replicate 1: 0.07

What is on record for CG15484 #1?
z-score, replicate 1: 0.08

What did the screen give for CG15484 #2?
z-score, replicate 1: 0.35

Which result is listed for p38a?
z-score, replicate 1: 0.38
